In assay [1] the target is RhlB residues 416–517 with N-terminal GST tag (Caulobacter crescentus) (UniProt Q9A779). Nature of the assay: pull-down; GST-RhlB(416–517) as bait with C. crescentus cell lysate; SDS-PAGE; only the target purified.
Assay [2] has as its target RNase E (cc1877), endogenous (Caulobacter crescentus (endogenous in C. crescentus lysate)) (UniProt Q9A749). Nature of the assay: co-IP; co-immunopurification from C. crescentus with an antibody raised against the S1 insert of RNase E; SDS-PAGE, MALDI mass spectrometry.
In assay [3] the target is recombinant RNase D with an N-terminal hexa-histidine tag (Caulobacter crescentus (CB15)) (UniProt Q9A7L8). As to the kind of experiment: pull-down; ~0.5 mg purified 6xHis-RNase D on a His-select spin column; C. crescentus lysate passed over; washed with 20-mM Tris–HCl pH 7.5, 200-mM NaCl; eluted with 500-mM imidazole; SDS-PAGE; only the target purified.
Assay [4] deals with RNase E with a chromosomally encoded 3xFLAG tag on the N-terminus (Caulobacter crescentus). As to the kind of experiment: co-IP; co-immunopurification with anti-FLAG monoclonal antibody from a strain with chromosomally encoded 3xFLAG-RNase E; SDS-PAGE, MALDI mass spectrometry.

Protein sequences, listed by entry. Tags and fused reporters are not part of them. Lines headed by an entry give the natural chain unless they say otherwise; changes in a name come on top.
UniProt Q9A779: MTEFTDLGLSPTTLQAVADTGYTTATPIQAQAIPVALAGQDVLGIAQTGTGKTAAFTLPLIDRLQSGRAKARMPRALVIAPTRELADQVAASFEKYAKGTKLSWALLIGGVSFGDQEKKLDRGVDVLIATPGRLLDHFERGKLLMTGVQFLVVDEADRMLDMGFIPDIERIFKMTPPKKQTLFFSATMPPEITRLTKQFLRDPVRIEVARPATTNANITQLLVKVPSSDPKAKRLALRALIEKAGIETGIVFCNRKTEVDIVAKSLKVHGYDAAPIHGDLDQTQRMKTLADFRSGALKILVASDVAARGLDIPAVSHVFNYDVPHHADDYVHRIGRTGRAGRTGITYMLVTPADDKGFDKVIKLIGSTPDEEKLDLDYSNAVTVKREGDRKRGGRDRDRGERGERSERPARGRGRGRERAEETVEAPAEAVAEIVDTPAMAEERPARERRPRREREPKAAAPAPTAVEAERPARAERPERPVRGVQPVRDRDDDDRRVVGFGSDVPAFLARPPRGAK
UniProt Q9A749: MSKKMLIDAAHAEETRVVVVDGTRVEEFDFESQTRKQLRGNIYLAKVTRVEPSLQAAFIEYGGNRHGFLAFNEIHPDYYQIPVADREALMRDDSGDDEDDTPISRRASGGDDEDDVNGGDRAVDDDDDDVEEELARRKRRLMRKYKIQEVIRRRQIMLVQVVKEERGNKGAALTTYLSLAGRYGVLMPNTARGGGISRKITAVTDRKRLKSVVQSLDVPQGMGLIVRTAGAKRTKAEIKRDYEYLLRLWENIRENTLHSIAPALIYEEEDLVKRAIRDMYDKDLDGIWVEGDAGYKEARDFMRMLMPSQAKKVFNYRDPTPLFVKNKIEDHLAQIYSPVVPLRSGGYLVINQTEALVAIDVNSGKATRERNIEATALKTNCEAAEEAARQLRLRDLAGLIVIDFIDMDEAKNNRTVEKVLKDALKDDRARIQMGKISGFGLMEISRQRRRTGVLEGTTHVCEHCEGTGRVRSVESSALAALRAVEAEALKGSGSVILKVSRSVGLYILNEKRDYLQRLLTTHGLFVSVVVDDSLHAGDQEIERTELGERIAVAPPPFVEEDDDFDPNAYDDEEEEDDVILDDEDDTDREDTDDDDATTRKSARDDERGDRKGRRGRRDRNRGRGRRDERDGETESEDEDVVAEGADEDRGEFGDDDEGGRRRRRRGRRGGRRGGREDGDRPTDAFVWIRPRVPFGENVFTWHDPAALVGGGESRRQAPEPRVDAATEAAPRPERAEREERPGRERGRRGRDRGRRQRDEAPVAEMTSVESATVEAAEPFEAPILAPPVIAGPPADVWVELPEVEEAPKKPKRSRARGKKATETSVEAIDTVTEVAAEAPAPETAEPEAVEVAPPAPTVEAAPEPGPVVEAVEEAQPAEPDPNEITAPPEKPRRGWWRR
UniProt Q9A7L8: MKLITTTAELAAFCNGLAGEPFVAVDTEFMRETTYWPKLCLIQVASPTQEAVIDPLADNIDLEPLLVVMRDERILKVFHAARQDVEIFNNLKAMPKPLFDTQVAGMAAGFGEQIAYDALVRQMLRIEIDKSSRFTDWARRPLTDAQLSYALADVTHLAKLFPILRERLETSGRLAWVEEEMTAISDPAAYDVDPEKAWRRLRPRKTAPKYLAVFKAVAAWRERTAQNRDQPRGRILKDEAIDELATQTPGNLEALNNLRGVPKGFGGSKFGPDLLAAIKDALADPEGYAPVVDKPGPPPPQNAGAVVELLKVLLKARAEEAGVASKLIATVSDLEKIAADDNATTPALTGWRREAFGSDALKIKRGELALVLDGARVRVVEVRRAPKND
UniProt Q9A299: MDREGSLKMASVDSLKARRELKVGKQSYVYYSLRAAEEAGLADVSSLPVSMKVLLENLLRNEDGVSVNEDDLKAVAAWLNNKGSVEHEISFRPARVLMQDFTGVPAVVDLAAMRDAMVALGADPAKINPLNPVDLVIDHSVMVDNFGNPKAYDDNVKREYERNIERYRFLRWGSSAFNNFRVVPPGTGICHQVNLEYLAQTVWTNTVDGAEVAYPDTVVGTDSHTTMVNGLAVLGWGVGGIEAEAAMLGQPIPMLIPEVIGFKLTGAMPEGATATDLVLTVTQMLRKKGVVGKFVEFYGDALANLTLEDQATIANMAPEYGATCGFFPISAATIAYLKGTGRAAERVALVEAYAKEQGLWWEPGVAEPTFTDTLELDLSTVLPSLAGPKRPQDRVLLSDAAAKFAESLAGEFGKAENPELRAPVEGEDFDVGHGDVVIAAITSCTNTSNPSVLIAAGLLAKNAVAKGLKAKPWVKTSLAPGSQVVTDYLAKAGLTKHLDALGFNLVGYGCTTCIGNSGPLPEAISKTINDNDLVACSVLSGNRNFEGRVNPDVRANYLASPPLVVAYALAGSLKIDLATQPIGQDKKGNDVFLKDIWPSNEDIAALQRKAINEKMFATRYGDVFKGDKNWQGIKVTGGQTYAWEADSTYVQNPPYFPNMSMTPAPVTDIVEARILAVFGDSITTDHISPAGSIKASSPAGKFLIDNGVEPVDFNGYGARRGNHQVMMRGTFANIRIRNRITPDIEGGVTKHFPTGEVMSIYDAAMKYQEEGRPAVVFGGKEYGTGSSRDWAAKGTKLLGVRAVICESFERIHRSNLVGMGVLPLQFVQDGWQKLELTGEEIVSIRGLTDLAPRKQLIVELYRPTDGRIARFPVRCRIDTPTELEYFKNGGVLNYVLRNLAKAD
UniProt Q99QM0: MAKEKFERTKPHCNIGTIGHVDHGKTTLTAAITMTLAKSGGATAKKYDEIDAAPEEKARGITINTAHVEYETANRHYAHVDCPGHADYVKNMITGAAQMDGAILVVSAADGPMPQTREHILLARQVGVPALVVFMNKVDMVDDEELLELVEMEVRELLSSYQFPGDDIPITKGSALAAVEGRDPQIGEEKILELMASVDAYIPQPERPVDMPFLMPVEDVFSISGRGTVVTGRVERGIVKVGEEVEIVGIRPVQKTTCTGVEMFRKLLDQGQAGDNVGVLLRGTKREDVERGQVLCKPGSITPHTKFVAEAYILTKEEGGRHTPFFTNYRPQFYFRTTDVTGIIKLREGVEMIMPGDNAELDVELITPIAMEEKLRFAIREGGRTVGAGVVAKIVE

Results are given in words; binding and its absence hold for the method and conditions named. Binding seen in cells or lysates may run through a third protein. Binding can be weak; no strength is given.

For “DEAD-box RNA helicase RhlB (cc1847), endogenous (from UniProt Q9A779) (enzyme)”, the binding result in assay [1] is listed as “no binding”; in assay [2], “binds”; in assay [3] it was “binds”.

Take “RNase E (cc1877), endogenous (from UniProt Q9A749) (enzyme)”: the binding entry in assay [1] and in assay [3] was “binds” throughout.

For “aconitase (cc3667), endogenous (from UniProt Q9A299) (enzyme)”, the binding entry in assay [1], in assay [2] and in assay [3] was “binds” throughout.

On to “elongation factor Tu (TufA, cc3199), endogenous (from UniProt Q99QM0 1-396)”, for which, in assay [2], the binding result is recorded as “no binding”.

B1: polynucleotide phosphorylase (PNPase, cc0034), endogenous (enzyme, UniProt Q9AC32 1-712)
chain: MFDIKRKTIEWGGKTLVLETGRIARQADGAVLATMGETVVLATAVFAKSQKPGQDFFPLTVNYQEKTFAAGKIPGGFFKREGRPSEKETLVSRLIDRPIRPLFVKGFKNEVQVVVTVLQHDLENDPDILGMVAASAALCLSGAPFMGPIGAARVGWVDGAYVLNPTLDEMKESKMDLVVAGTADAVMMVESEIQELSEEIVLGGVNFAHQQMQAVIDAIIDLAEHAAKEPFAFEPEDTDAIKAKMKDLVGADIAAAYKIQKKQDRYEAVGAAKKKAIAALGLSDENPTGYDPLKLGAIFKELEADVVRRGILDTGLRIDGRDVKTVRPILGEVGILPRTHGSALFTRGETQAIVVATLGTGDDEQFIDALEGTYKESFLLHYNFPPYSVGETGRMGSPGRREIGHGKLAWRALRPMLPTKEDFPYTIRLVSEITESNGSSSMATVCGSSLAMMDAGVPLVRPVSGIAMGLILEQDGFAVLSDILGDEDHLGDMDFKVAGTSEGLTSLQMDIKIAGITPAIMEQALAQAKEGRAHILGEMNKAMDAPRADVGDFAPKIETINIPTDKIREVIGSGGKVIREIVATTGAKVDINDDGVVKVSASDGAKIKAAIDWIKSITDEAEVGKIYDGKVVKVVDFGAFVNFFGAKDGLVHVSQISNERVAKPSDVLKEGQMVKVKLLGFDDRGKTKLSMKVVDQETGEDLSKKEAAAEEA
Consider B1, for which the binding entry in assay [1], in assay [2], in assay [4] and in assay [3] was “binds” each time.

For the origin of these results see PMC4245959, “Molecular recognition of RhlB and RNase D in the Caulobacter crescentus RNA degradosome” (Nucleic Acids Research, 2014).
